# Experimental data: PubChem BioAssay AID651768 (National Center for Advancing Translational Sciences (NCATS), 2012)
# Sequences of proteins named here, by UniProt entry; tags and fusion partners are left off.
# UniProt Q14191, whole entry, looked up: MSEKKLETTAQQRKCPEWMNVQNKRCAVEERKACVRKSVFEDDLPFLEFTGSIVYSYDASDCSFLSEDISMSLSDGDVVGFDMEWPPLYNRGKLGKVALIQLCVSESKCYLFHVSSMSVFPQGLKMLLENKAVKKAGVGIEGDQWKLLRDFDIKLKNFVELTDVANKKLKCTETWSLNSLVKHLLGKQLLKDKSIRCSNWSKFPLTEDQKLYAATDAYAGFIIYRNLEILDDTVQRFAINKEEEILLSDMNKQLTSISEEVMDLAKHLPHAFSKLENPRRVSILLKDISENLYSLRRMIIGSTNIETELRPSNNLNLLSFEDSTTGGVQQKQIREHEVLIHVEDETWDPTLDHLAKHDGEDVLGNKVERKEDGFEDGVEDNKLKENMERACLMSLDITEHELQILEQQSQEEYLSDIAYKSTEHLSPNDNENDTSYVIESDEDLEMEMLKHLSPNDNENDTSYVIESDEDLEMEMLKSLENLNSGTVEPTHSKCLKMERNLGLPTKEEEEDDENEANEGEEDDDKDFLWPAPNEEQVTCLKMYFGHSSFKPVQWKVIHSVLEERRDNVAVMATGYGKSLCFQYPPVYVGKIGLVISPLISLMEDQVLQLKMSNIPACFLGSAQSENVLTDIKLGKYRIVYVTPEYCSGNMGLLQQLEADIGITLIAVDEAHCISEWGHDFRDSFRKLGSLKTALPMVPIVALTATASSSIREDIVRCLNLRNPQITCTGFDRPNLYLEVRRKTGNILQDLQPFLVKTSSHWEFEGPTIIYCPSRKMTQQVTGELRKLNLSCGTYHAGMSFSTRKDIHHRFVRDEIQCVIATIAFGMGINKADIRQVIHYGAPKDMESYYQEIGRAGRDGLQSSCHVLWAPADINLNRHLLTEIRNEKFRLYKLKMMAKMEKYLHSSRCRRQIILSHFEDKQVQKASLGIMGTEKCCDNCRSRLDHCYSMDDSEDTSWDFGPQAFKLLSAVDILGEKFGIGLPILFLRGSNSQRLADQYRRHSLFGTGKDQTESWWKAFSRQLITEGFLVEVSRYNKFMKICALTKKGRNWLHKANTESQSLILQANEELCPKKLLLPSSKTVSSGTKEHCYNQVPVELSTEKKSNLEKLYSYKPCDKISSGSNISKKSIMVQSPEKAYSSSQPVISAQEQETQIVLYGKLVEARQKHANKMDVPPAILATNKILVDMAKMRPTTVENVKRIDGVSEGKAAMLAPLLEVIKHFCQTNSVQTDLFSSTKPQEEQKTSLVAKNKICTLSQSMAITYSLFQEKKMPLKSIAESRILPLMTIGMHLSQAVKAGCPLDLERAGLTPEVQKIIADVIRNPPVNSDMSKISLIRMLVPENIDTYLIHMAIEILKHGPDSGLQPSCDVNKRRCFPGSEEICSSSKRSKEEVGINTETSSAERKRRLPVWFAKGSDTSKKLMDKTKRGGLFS
# Several values for one entry are separate records, joined by “and”; a condition that tells them apart may be missing. Equal entries are not always repeated. The whole screen tested about 360,000 compounds, of which about 1,700 (0.47%) were called active. The inconclusive results got no clear call from the source; some entries with a clear call stand among them for comparison. The call rests on the fitted dose curve; in most records, active means well fitted inhibition curve with a large enough effect; inconclusive means small, poorly fitted or top-dose-only effect; inactive means no such curve, though single readings can be large or run the other way. Where the call is inconclusive, the potency comes from a doubtful curve fit.
# Target: Bifunctional 3'-5' exonuclease/ATP-dependent helicase WRN (Homo sapiens) (UniProt Q14191)
# Assay: qHTS for Inhibitors of WRN Helicase; further: nearly all actives have a fitted effect of over 55% in size
# Conditions: WRN helicase unwinding, fluorescent forked duplex, kinetic; series mostly up to 114 µM
# How it was run: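 Kinetic fluorescence helicase assay: unwinding of a quenched forked DNA duplex (100 nM final) with 2 mM ATP final raises red fluorescence (525/598 nm). Compounds sat 15 min at room temperature with 20 nM WRN beforehand.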
# Potency means the concentration at half of the fitted maximal effect.
row,SMILES,Potency
1,COc1ccc(-c2cc(=Nc3cccc(C(=O)O)c3)c3cc(C)ccc3o2)cc1,"inconclusive: 79.4 µM [inhibitor, partial curve, poor fit]"
2,Cc1cccc(N2C(=O)NC(=O)/C(=C/c3cc4c(cc3[N+](=O)[O-])OCO4)C2=O)c1,active: 50.1 µM
3,CN1C(=O)NC(=O)[C@]2(Cc3ccccc3N3CCN(c4ccccc4)CC32)C1=O (stereo partly drawn),inactive
4,Cc1cc(C)cc(OCCOc2cccc(C=C3C(=O)NC(=O)NC3=O)c2)c1,inactive
5,Cc1ccc2c(c1)C1CN(C)CCC1N2C(=O)Cn1cnc2c1c(=O)n(C)c(=O)n2C (stereo not drawn),inactive
6,O=C1NC(=O)C2C1C1(Cl)C(Cl)=C(Cl)C2(Cl)C1(Cl)Cl (stereo not drawn),inactive
7,Cc1ccc(/C=C2/C(=O)NC(=O)N(C)C2=O)cc1,"inconclusive: 50.1 µM [inhibitor, partial curve]"
8,O=C(COC(=O)Cc1ccccc1)Nc1ncc(Cl)cc1Cl,"inconclusive: 89.1 µM [inhibitor, single point]"
9,COCCN1C(=O)NC(=O)/C(=C\c2ccc(F)cc2)C1=O,inactive
10,Nc1nonc1C(=O)N/N=C/c1ccc([N+](=O)[O-])o1,"inconclusive: 22.4 µM [inhibitor, single point]"
11,COc1ccc(-n2c(O)c(/C=C/C=Nc3ccccc3)c(=O)[nH]c2=O)cc1,"inconclusive: 50.1 µM [inhibitor, partial curve]"
12,COc1ccc(NC(=O)CN2CC=C(c3ccccc3)CC2)cc1S(=O)(=O)N1CCOCC1,"inconclusive: 50.1 µM [inhibitor, partial curve]"
13,CCOP(=O)(C1=C(O)C(=O)C(C(C)(C)C)=CC1=O)c1ccccc1 (stereo not drawn),"inconclusive: 17.8 µM [inhibitor, full curve, poor fit]"
14,CN(C)c1ccc(/C=C2\C(=O)NC(=O)N(CCc3ccc(F)cc3)C2=O)cc1,"inconclusive: 50.1 µM [inhibitor, partial curve]"
15,CCN(CC)c1ccc(CC2C(=O)N(C)C(=O)N(C)C2=O)cc1,active: 20 µM
16,CNS(=O)(=O)c1ccc(-c2ccc(C=C3C(=O)NC(=O)NC3=O)o2)cc1,"inconclusive: 50.1 µM [inhibitor, partial curve]"
17,NC(N)=Nc1ccc2[nH]c3c(c2c1)C[C@@]1(O)[C@H]2Cc4ccc(O)c5c4[C@@]1(CCN2CC1CC1)[C@H]3O5,"inconclusive: 50.1 µM [inhibitor, partial curve]"
18,CCOP(=O)(OCC)c1ccc(OP(=O)(c2cccc([N+](=O)[O-])c2)c2cccc([N+](=O)[O-])c2)cc1,"inconclusive: 3.55 µM [inhibitor, full curve, poor fit]"
19,CN1CCN2c3ccc(N)cc3CC3(C(=O)NC(=O)NC3=O)C2C1 (stereo not drawn),"inconclusive: 50.1 µM [inhibitor, partial curve]"
20,Cc1cc(/C=C2\C(=O)NC(=O)N(Cc3ccco3)C2=O)c(C)n1-c1ccc(C(=O)O)cc1,"inconclusive: 50.1 µM [inhibitor, partial curve]"
21,CCN(CC)c1ccc(/C=C2/C(=O)NC(=O)N(Cc3ccco3)C2=O)cc1,active: 56.2 µM
22,O=C1C(=O)C(Cl)=C(Cl)C(Cl)=C1Cl,active: 39.8 µM
23,CCCCN1C(=O)/C(=C/C=C/c2ccco2)C(=O)NC1=S,active: 2.67 µM

row,SMILES,Potency
1,Cc1ccc(NP(=O)(Oc2ccccc2F)Oc2ccccc2F)cc1C,inactive
2,CCN(CC)P(=O)(NC(=O)C(Cl)(Cl)Cl)N(CC)CC.[Cl-].[Cl-].[Cl-].[Nd+3],"inconclusive: 50.1 µM [inhibitor, partial curve] and inconclusive: 15.8 µM [inhibitor, full curve]"
3,CC(=O)OC1(c2ccccc2)CC(C(C)(C)C)CN(C(C)(C)C)C1 (stereo not drawn),inactive
4,O=c1[nH]c(=S)[nH]c(O)c1/C=C1/C=c2ccccc2=N1,inactive
5,COc1ccc(NS(=O)(=O)c2cc(N=Nc3c(O)[nH]c(=O)[nH]c3=O)ccc2Cl)cc1,"inconclusive: 35.5 µM [inhibitor, full curve, poor fit]"
6,CC(Cc1ccc(O)cc1)NCC(O)c1ccc(O)c(O)c1 (stereo not drawn),active: 25.1 µM
7,CN(C)c1ccc(C=C2C(=O)NC(=O)NC2=O)cc1[N+](=O)[O-],"inconclusive: 25.1 µM [inhibitor, single point]"
8,C=CCn1c(CSc2ccccc2[N+](=O)[O-])n[nH]c1=S,active: 39.8 µM
9,Cn1cc(C=C2C(=O)NC(=O)NC2=O)c2ccccc21,"inconclusive: 63.1 µM [inhibitor, partial curve, poor fit]"
10,CCC(=O)OC1(c2ccccc2)C(C)CN(C)CC1C (stereo not drawn),inactive
11,O=C1NC(=O)N(Cc2ccccc2)C(=O)/C1=C\C=C\c1ccco1,active: 50.1 µM
12,O=C1NC(=O)N(Cc2ccco2)C(=O)/C1=C\c1ccc(-c2ccc(F)cc2)o1,active: 31.6 µM
13,COc1cc(C(c2c(C)[nH]n(-c3ccccc3)c2=O)c2c(C)[nH]n(-c3ccccc3)c2=O)cc(OC)c1OC,"inconclusive: 56.2 µM [inhibitor, partial curve]"
14,COc1ccc(CN2CCN(C(=O)COc3cccc(C)c3)CC2)c(OC)c1,"inconclusive: 100 µM [inhibitor, partial curve, poor fit]"
15,C=CCn1c(O)c(C=NCCCOc2ccc(CC)cc2)c(=O)[nH]c1=S,"inconclusive: 56.2 µM [inhibitor, partial curve]"
16,CCN1C(=O)C(=Cc2ccc(C)s2)C(=O)N(CC)C1=S,"inconclusive: 50.1 µM [inhibitor, partial curve]"
17,Cc1ccc(N2C(=O)NC(=O)/C(=C/c3cnc(-c4ccccc4)nc3)C2=O)cc1C,"inconclusive: 28.2 µM [inhibitor, single point]"
18,O=C1NC(=O)N(CCC2=CCCCC2)C(=O)/C1=C\c1cccs1,"inconclusive: 44.7 µM [inhibitor, partial curve]"
19,CCCCN1C(=O)NC(=O)/C(=C/c2cnc(SC)nc2)C1=O,active: 39.8 µM
20,COc1ccccc1N1C(=O)NC(=O)/C(=C\c2cnn(-c3ccccc3)c2)C1=O,"inconclusive: 56.2 µM [inhibitor, partial curve]"
21,S=c1[nH]nc(-c2ccc3ccccc3n2)n1-c1ccc2c(c1)OCCO2,"inconclusive: 3.98 µM [inhibitor, full curve, poor fit]"
22,Clc1cccc(N2Cc3cc(-c4ccccc4)ccc3-n3nncc3C2)c1,"inconclusive: 70.8 µM [inhibitor, partial curve]"
23,COc1cc(N2C(=O)CC(=O)NC2=O)cc(OC)c1OC,"inconclusive: 89.1 µM [inhibitor, single point]"

# 5 entries from above, as tab-separated lines.
row	SMILES	Potency
3	CC(=O)OC1(c2ccccc2)CC(C(C)(C)C)CN(C(C)(C)C)C1 (stereo not drawn)	inactive
4	O=c1[nH]c(=S)[nH]c(O)c1/C=C1/C=c2ccccc2=N1	inactive
5	COc1ccc(NS(=O)(=O)c2cc(N=Nc3c(O)[nH]c(=O)[nH]c3=O)ccc2Cl)cc1	inconclusive: 35.5 µM [inhibitor, full curve, poor fit]
6	CC(Cc1ccc(O)cc1)NCC(O)c1ccc(O)c(O)c1 (stereo not drawn)	active: 25.1 µM
7	CN(C)c1ccc(C=C2C(=O)NC(=O)NC2=O)cc1[N+](=O)[O-]	inconclusive: 25.1 µM [inhibitor, single point]

# Following part.

row,SMILES,Potency
1,COc1ccc(N2C(=O)NC(=O)/C(=C\c3ccc([N+](=O)[O-])s3)C2=O)cc1,active: 25.1 µM
2,C[C@H]1COC2=C1C(=O)C(=O)c1c2ccc2c1CCCC2(C)C,"inconclusive: 56.2 µM [inhibitor, partial curve]"
3,CC1([N+](=O)[O-])COP(=O)(Nc2ccccc2F)OC1 (stereo not drawn),"inconclusive: 22.4 µM [inhibitor, single point]"
4,O=c1[nH]c(=S)n(Cc2ccco2)c(O)c1C=NCc1cccs1,"inconclusive: 56.2 µM [inhibitor, partial curve]"
5,Cc1ccc(C(=O)NC(=S)NNS(=O)(=O)c2ccc(C)cc2)cc1,"inconclusive: 14.1 µM [inhibitor, single point]"
6,COc1ccc(C=C2C(=O)NC(=S)NC2=O)cc1OC,active: 44.7 µM
7,CCN(CC)C(=O)c1c(C)[nH]c(=S)c(C#N)c1-c1ccco1,active: 50.1 µM
8,NC(=O)c1cn(C2CCCCC2)c2ccccc2c1=O,inactive
9,Cc1ccc2c(c1)=C/C(=C\c1c(O)[nH]c(=O)[nH]c1=O)C(=O)N=2,active: 39.8 µM
10,O=C(c1ccccc1[N+](=O)[O-])N1CCC2(CC1)OCCO2,"inconclusive: 89.1 µM [inhibitor, single point]"
11,CC(C)Oc1ccc(C2C(C#N)=C(N)Oc3c2c(=O)oc2ccccc32)cc1 (stereo not drawn),inactive
12,Cc1ccccc1N1C(=O)NC(=O)/C(=C\c2cc(Br)c(N3CCOCC3)o2)C1=O,"inconclusive: 11.2 µM [inhibitor, partial curve]"
13,Cc1cccc(N2C(=O)NC(=O)/C(=C/c3ccc(N4CCOCC4)cc3)C2=O)c1,"inconclusive: 56.2 µM [inhibitor, partial curve]"
14,Cc1cc(/C=C2\C(=O)NC(=O)N(c3cccc(F)c3)C2=O)c(C)n1-c1cc(C(=O)O)cc(C(=O)O)c1,"inconclusive: 70.8 µM [inhibitor, single point]"
15,CCc1ccc(N2C(=O)NC(=O)/C(=C/c3cccn3CCOc3ccc(C(C)CC)cc3)C2=O)cc1 (stereo not drawn),inactive
16,CCC(=NCC1CCCO1)c1c(O)n(-c2ccc(Cl)cc2)c(=O)[nH]c1=O (stereo not drawn),inactive
17,O=S(=O)(c1ccc(Cl)cc1)N1Cc2ccccc2-n2nncc2C1,inactive
18,O=C1NC(=S)N(c2ccccc2F)C(=O)/C1=C\c1cccs1,active: 50.1 µM
19,CN(C)c1ccc(/C=C/C=C2/C(=O)NC(=O)N(c3ccccc3)C2=O)cc1,active: 17.8 µM
20,Cc1cc(/C=C2\C(=O)NC(=O)N(c3ccc(Cl)cc3)C2=O)c(C)n1-c1sc2c(c1C#N)CCCC2,"inconclusive: 50.1 µM [inhibitor, partial curve]"
21,COc1ccc(CC(=O)NC(=S)NNC(=O)COc2c(C)cccc2C)cc1,"inconclusive: 25.1 µM [inhibitor, single point]"
22,CN1CCC(O)(c2cccs2)C(C(=O)c2cccs2)C1 (stereo not drawn),"inconclusive: 8.91 µM [inhibitor, full curve]"
